Test results taken from patent US20070248604A1 (Genentech, published 2007).
Results are given in words; binding and its absence hold for the method and conditions named. Binding seen in cells or lysates may run through a third protein. Some results given as binding are weak or reduced against the parent protein; the word gives no strength.

Amino acid sequences for entries named in this document (tags omitted). Residues count along the entry.
UniProt P35222, residues 2-781: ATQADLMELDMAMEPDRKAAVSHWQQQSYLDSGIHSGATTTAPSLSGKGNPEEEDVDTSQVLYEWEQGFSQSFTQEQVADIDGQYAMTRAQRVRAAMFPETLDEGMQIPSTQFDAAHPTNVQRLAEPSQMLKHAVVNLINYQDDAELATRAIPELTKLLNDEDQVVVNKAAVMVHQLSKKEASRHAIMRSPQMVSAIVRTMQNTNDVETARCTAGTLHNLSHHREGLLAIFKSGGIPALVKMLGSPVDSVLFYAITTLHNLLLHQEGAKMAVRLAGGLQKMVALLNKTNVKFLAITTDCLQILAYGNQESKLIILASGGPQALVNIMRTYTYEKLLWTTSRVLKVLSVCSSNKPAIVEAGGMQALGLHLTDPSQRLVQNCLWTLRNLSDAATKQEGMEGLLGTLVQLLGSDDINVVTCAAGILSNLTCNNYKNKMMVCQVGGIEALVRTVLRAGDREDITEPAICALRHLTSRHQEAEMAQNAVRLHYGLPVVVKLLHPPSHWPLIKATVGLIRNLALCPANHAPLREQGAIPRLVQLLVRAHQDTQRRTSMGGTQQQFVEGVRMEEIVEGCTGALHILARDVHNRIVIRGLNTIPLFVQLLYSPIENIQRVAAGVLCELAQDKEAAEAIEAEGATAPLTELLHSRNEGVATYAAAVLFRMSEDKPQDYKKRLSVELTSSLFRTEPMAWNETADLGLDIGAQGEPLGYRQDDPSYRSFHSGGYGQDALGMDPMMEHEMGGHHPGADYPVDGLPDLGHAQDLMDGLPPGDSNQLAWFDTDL
UniProt P12830, residues 155-882: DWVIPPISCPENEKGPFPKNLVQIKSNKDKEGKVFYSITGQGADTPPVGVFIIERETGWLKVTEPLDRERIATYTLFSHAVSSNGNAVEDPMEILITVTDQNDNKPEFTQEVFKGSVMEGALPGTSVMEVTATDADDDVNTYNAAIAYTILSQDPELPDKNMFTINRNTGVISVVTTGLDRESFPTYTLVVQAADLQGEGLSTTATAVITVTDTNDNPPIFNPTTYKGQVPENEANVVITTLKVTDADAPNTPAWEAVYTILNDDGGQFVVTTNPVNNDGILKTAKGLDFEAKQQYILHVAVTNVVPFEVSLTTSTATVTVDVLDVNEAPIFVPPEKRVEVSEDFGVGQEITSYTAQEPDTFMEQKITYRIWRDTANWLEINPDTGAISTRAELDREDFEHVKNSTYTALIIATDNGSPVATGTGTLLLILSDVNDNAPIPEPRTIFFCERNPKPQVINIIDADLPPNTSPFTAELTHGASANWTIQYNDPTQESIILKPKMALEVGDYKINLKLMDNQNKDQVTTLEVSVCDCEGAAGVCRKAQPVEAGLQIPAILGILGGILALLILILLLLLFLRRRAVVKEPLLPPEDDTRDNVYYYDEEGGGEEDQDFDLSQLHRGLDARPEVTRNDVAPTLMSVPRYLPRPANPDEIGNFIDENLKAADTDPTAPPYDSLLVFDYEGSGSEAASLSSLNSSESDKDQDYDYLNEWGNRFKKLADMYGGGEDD

What was measured:
β-catenin (human) [1] = molecular target: β-catenin (human) (UniProt P35222); assay: co-immunoprecipitation from HCT116 lysates (figure legend)
β-catenin (human) [2] = molecular target: β-catenin (human) (UniProt P35222); assay: co-immunoprecipitation from HCT116 cell lysates: IP β-catenin, Western blot E-cadherin
β-catenin (human) [3] = molecular target: β-catenin (human) (UniProt P35222); assay: co-immunoprecipitation from HCT116 lysates (β-catenin IP, E-cadherin blot, and the reverse); binding lowered after FGF19 treatment

Measured: binding

E-cadherin (from UniProt P12830 155-882)
binds: all assays above
